# Entries after “also recorded” stand apart in the source; their conditions may differ. At least one compound was matched to its structure with a doubt left.
# Test system: goldfish retinal ganglion cells
# Test: Axonal outgrowth from dissociated goldfish retinal ganglion cell cultures
# Assay type: cell-based
# Conditions: 6-TG 10 μM; NBTI 20 μM; dipyridamole 10 μM
# Experimental: Axogenesis factor-1 was obtained essentially as described in Schwalb et al., 1995, and Schwalb et al., Neuroscience, 72: 901-910, 1996, the contents of which are incorporated herein by reference). Optic nerves were dissected, cut into fragments 1 mm in length, and incubated in a ratio of 6 nerves in 3 ml of either L-15 media (Gibco BRL) or phosphate-buffered saline (Gibco BRL). After 3-4 hours, nerve fragments were removed by filtering through a 0.22 μm pore low protein-binding filter (Gelman). A low molecular weight fraction of the conditioned media was prepared by ultrafiltration, first with a molecular weight cut-off of 3 kDa (Amicon Centriprep-3), then with a cut-off of 1 kDa (Filtron). The filtrate was used as a positive control at 20-30% final concentration. […] Goldfish (Comet Variety, Mt. Parnell Fisheries, Mt. Parnell Pa.), 6-10 cm in length, were dark-adapted and their retinas dissected. […] In a typical experiment, samples were plated in quadruplicate in randomized positions of a 24-well plate and the code was concealed to ensure that growth was evaluated in a blinded fashion. […] After the completion of counting, the code was broken, the data tabulated, and means and standard errors were calculated for the 4 replicate wells of each sample using Cricket Graph (CA Associates, […].). […]
smiles,measurement,value
"O=[N+]([O-])c1ccc(CSc2ncnc3c2ncn3C2OC(CO)C(O)C2O)cc1 (stereo not shown) [NBTI, nitrobenzylthio inosine]",effect of transport inhibitors on 6-TG blockade of AF-1-stimulated outgrowth,failed to prevent 6-TG from blocking outgrowth; also recorded: not restored
